Test results published in PMC7819943, “Rice protein-binding microarrays: a tool to detect cis-acting elements near promoter regions in rice”.
This is one part of the list.

Chains of the proteins cited; added tags and fusions are not shown.
UniProt Q0JBA9, entry or part of it: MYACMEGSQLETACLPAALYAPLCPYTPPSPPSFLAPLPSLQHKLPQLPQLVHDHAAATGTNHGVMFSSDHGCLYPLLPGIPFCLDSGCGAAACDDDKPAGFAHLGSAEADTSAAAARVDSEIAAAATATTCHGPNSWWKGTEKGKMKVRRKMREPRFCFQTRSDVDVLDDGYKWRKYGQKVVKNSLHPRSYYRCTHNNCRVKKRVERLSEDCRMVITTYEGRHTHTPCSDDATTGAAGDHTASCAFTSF

Target: OsWRKY34 (Oryza sativa, UniProt Q0JBA9 1-250)
Experiment: protein-binding microarray (RPBM); PBS, 2% BSA, 51.3 ng/ul salmon testes DNA, 50 uM zinc acetate, 200 nM TF, 25 C, 1 h; high values mean tight binding
Conditions: protein: recombinant; tags: N-terminal polyhistidine and DsRed monomer fusion (pET32a); label: CyDye5-dUTP incorporated in the synthesized complementary strand; 3' TTTTT single-stranded linker to array surface; dsDNA, one strand shown
Procedure, shortened: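 Transcription factors, each fused N-terminally to a polyhistidine tag and DsRed, were expressed in E. coli BL21-CodonPlus and purified on Ni–NTA. A custom Agilent array was made double-stranded by primer extension with Cy5-dUTP and blocked with 2% BSA. It was incubated with 200 nM protein in PBS, 2% BSA, salmon testes DNA and 50 µM zinc acetate at 25 °C for 1 h, then washed. The binding signal is per-feature fluorescence intensity (arbitrary units) read on an Axon 4000B scanner.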

Sequence	binding signal
TCACCCCTTTGCTACTTTTCATATCCATGCAACATGCATACGGAGTCACCTAGTGCAG	8320 fluorescence intensity (a.u.)
GAAATGGTTTTGCTGTTATACCGATCGTTTCCGTATTTACCGGAGTCACCTAGTGCAG	10600 fluorescence intensity (a.u.)
GGTGTGATATATCTGGTTTTGTGGTTCGGTGGGGTAATTCCGGAGTCACCTAGTGCAG	22000 fluorescence intensity (a.u.)
GCTTTTCTCTTTCCTTGCATTCTCTCTCTTTCAACTCAACCGGAGTCACCTAGTGCAG	13800 fluorescence intensity (a.u.)
GTTTGGTGGTACTTTCTGTTACTCCTATTGGATTCTGAAACGGAGTCACCTAGTGCAG	10400 fluorescence intensity (a.u.)
GTCACCACCATCGATCGCCAGCTCGCGAAAACCAGAATCGCGGAGTCACCTAGTGCAG	8950 fluorescence intensity (a.u.)
ACCAGACTCGGCACCCGCTTTCTCATTTTTTTTTTCTTTTCGGAGTCACCTAGTGCAG	8780 fluorescence intensity (a.u.)
CGATATGGAGATATGGAGTTGTTGATGGTTAATTGCTTCCCGGAGTCACCTAGTGCAG	10200 fluorescence intensity (a.u.)
GGATTGTTTATTAGTTTGCCGATTCACAGTACAAACTTGGCGGAGTCACCTAGTGCAG	8520 fluorescence intensity (a.u.)
GAGAATAAACACGTGGCCAACTAACTTCATTACACAGTTTCGGAGTCACCTAGTGCAG	8030 fluorescence intensity (a.u.)
ACCCACATGTCAGCCTTCATTGCTTTCTTCTTCCTCCTCTCGGAGTCACCTAGTGCAG	9690 fluorescence intensity (a.u.)
TTTACTATTTGCCACTCTCTCAAAATAACCAGTGCTCAAACGGAGTCACCTAGTGCAG	8400 fluorescence intensity (a.u.)
GTTTTCCGATCGTTTCTGACCGTTTTCATCCCTAGTTTGGCGGAGTCACCTAGTGCAG	10700 fluorescence intensity (a.u.)
GTTTTTGTGCTTGGTGGTGGTGGTGGGTGATTTGCAGGGGCGGAGTCACCTAGTGCAG	31700 fluorescence intensity (a.u.)
GTTGCAAGAATAGGTATAGGAGAATGTATGGTTGCTTTTTCGGAGTCACCTAGTGCAG	8180 fluorescence intensity (a.u.)
ACTCTACTCCGTATTCTTCTAGTTAACTTGTTCGATCGTCCGGAGTCACCTAGTGCAG	12000 fluorescence intensity (a.u.)
GCCGCCACCGCAACCTACCGCCGCCGCGGCAAGCCCAAGCCGGAGTCACCTAGTGCAG	8960 fluorescence intensity (a.u.)
CAAATCCATCTTCTTTTTTGGTCTCTTCTTCTTCTTCTTCCGGAGTCACCTAGTGCAG	11100 fluorescence intensity (a.u.)
AGCATCAACTCCAGTTTGTCGGGCCTGCCGTTGACTGACCCGGAGTCACCTAGTGCAG	12200 fluorescence intensity (a.u.)
CCTGGCCCGACAAACGTCCCACTCTCGCATCCCATCTCATCGGAGTCACCTAGTGCAG	9060 fluorescence intensity (a.u.)
CACTCTCCACCTTCTTCTTCCCAGCTTCTCTCGTCTCGGCCGGAGTCACCTAGTGCAG	10700 fluorescence intensity (a.u.)

Reprinted from the results shown (12 entries):
Sequence	binding signal
GTTTGGTGGTACTTTCTGTTACTCCTATTGGATTCTGAAACGGAGTCACCTAGTGCAG	10400 fluorescence intensity (a.u.)
GTCACCACCATCGATCGCCAGCTCGCGAAAACCAGAATCGCGGAGTCACCTAGTGCAG	8950 fluorescence intensity (a.u.)
ACCAGACTCGGCACCCGCTTTCTCATTTTTTTTTTCTTTTCGGAGTCACCTAGTGCAG	8780 fluorescence intensity (a.u.)
CGATATGGAGATATGGAGTTGTTGATGGTTAATTGCTTCCCGGAGTCACCTAGTGCAG	10200 fluorescence intensity (a.u.)
GGATTGTTTATTAGTTTGCCGATTCACAGTACAAACTTGGCGGAGTCACCTAGTGCAG	8520 fluorescence intensity (a.u.)
GAGAATAAACACGTGGCCAACTAACTTCATTACACAGTTTCGGAGTCACCTAGTGCAG	8030 fluorescence intensity (a.u.)
ACCCACATGTCAGCCTTCATTGCTTTCTTCTTCCTCCTCTCGGAGTCACCTAGTGCAG	9690 fluorescence intensity (a.u.)
TTTACTATTTGCCACTCTCTCAAAATAACCAGTGCTCAAACGGAGTCACCTAGTGCAG	8400 fluorescence intensity (a.u.)
GTTTTCCGATCGTTTCTGACCGTTTTCATCCCTAGTTTGGCGGAGTCACCTAGTGCAG	10700 fluorescence intensity (a.u.)
GTTTTTGTGCTTGGTGGTGGTGGTGGGTGATTTGCAGGGGCGGAGTCACCTAGTGCAG	31700 fluorescence intensity (a.u.)
GTTGCAAGAATAGGTATAGGAGAATGTATGGTTGCTTTTTCGGAGTCACCTAGTGCAG	8180 fluorescence intensity (a.u.)
ACTCTACTCCGTATTCTTCTAGTTAACTTGTTCGATCGTCCGGAGTCACCTAGTGCAG	12000 fluorescence intensity (a.u.)

Remaining list, next part

Sequence	binding signal
CTCGCTTCTCCTCCCTCTGCTCCGATCCGCGCGCTCCCACCGGAGTCACCTAGTGCAG	8930 fluorescence intensity (a.u.)
GAGGGTGGTGTTAGGTGAAACAAATGGCAATATTATGTGGCGGAGTCACCTAGTGCAG	8300 fluorescence intensity (a.u.)
ACCTAACAACTGTACTGCCCGGCTGCCAACTTCCATTCTCCGGAGTCACCTAGTGCAG	8320 fluorescence intensity (a.u.)
TGGCTCTCTCTTGATGCACCACACAACATTTATTTGACTGCGGAGTCACCTAGTGCAG	8530 fluorescence intensity (a.u.)
ATGGCGTATTTGCTATGTTGCCTCTTTAAATTTCGACAATCGGAGTCACCTAGTGCAG	9000 fluorescence intensity (a.u.)
AACCCATTACATAGCTGCAAGAAACCCAATCTTTCTTTACCGGAGTCACCTAGTGCAG	8420 fluorescence intensity (a.u.)
ATCTCTCTCTGTCTCGGCCTCTCCTGTTCTGGTCCAATCACGGAGTCACCTAGTGCAG	16300 fluorescence intensity (a.u.)
TGGTTCCGTTTGACGGTTTCGGAAGCCCCGGTCCATGTTTCGGAGTCACCTAGTGCAG	8480 fluorescence intensity (a.u.)
TTCACTTTGCCCCGATCCGCACCCAAACCCTAGCCATCTACGGAGTCACCTAGTGCAG	8980 fluorescence intensity (a.u.)
ATGCCATATGCCAGTACGGATCTTTTTGTGTCTGTTAGACCGGAGTCACCTAGTGCAG	8400 fluorescence intensity (a.u.)
TTGATGTGTGCCGTTCTTTATTACTACGTGTTAGAAGTTACGGAGTCACCTAGTGCAG	11600 fluorescence intensity (a.u.)
GTTACATAATTCTCCTTGTTTAAGTCCATATAATGTTTCTCGGAGTCACCTAGTGCAG	8220 fluorescence intensity (a.u.)
TATGGCCAACCTGCCCTACTCCTGTCTCTGTCCCTGTCATCGGAGTCACCTAGTGCAG	11100 fluorescence intensity (a.u.)
CGTCGTCGTCGTCGTTCGTCCCAATCTCCGCATCCCTCCACGGAGTCACCTAGTGCAG	10200 fluorescence intensity (a.u.)
TTGGTTGGGTGGTATATTTGTGGTGGTGGAGGCGGTCAGCCGGAGTCACCTAGTGCAG	8300 fluorescence intensity (a.u.)
CCAAGCACTACTACTCATCACTAGCTCACACACAATTGCACGGAGTCACCTAGTGCAG	9500 fluorescence intensity (a.u.)
ATACTGTCATCAATTGATTACTCTGACCGTCGATCACACACGGAGTCACCTAGTGCAG	8280 fluorescence intensity (a.u.)
GGAAACACCAAAATGGTCTATACTGTCTGTCAACACACTTCGGAGTCACCTAGTGCAG	9070 fluorescence intensity (a.u.)
CAATTATTCTCTCCTCCCCACTTGTTGACCAAAGCCCATCCGGAGTCACCTAGTGCAG	9450 fluorescence intensity (a.u.)
CCCCTTCGTTGAGTCATCGCCACACCTCCTTCCCGCTTTGCGGAGTCACCTAGTGCAG	8100 fluorescence intensity (a.u.)
GTCATCGGTGAGCCATCCAGCTACAGCCCGTCACAGGTATCGGAGTCACCTAGTGCAG	9910 fluorescence intensity (a.u.)
